The source of these data is paper PMC12199305.

Results are given in words; binding and its absence hold for the method and conditions named. Some entries that bind do so weakly or less than the wild type.

The test concerns the target MEF2A (human) (UniProt Q02078). The test can be described thus: SPR; Biacore T200, 25 °C; MEF2A immobilised on CM5 chip by amine coupling; class IIa HDACs injected at 40-1.25 nM (2-fold dilutions, in duplicate), 30 uL/min, contact 90 s, dissociation 300 s; HBS-P (10 mM Hepes pH 7.4, 150 mM NaCl, 0.05% P20) for HDAC7 and HDAC9, HBS-P with 1% (v/v) glycerol for HDAC4 and HDAC5; 1:1 kinetic binding model; three independent experiments; both purified.

B1: HDAC7 (enzyme, UniProt Q8WUI4 1-952)
chain: MDLRVGQRPPVEPPPEPTLLALQRPQRLHHHLFLAGLQQQRSVEPMRLSMDTPMPELQVGPQEQELRQLLHKDKSKRSAVASSVVKQKLAEVILKKQQAALERTVHPNSPGIPYRTLEPLETEGATRSMLSSFLPPVPSLPSDPPEHFPLRKTVSEPNLKLRYKPKKSLERRKNPLLRKESAPPSLRRRPAETLGDSSPSSSSTPASGCSSPNDSEHGPNPILGSEALLGQRLRLQETSVAPFALPTVSLLPAITLGLPAPARADSDRRTHPTLGPRGPILGSPHTPLFLPHGLEPEAGGTLPSRLQPILLLDPSGSHAPLLTVPGLGPLPFHFAQSLMTTERLSGSGLHWPLSRTRSEPLPPSATAPPPPGPMQPRLEQLKTHVQVIKRSAKPSEKPRLRQIPSAEDLETDGGGPGQVVDDGLEHRELGHGQPEARGPAPLQQHPQVLLWEQQRLAGRLPRGSTGDTVLLPLAQGGHRPLSRAQSSPAAPASLSAPEPASQARVLSSSETPARTLPFTTGLIYDSVMLKHQCSCGDNSRHPEHAGRIQSIWSRLQERGLRSQCECLRGRKASLEELQSVHSERHVLLYGTNPLSRLKLDNGKLAGLLAQRMFVMLPCGGVGVDTDTIWNELHSSNAARWAAGSVTDLAFKVASRELKNGFAVVRPPGHHADHSTAMGFCFFNSVAIACRQLQQQSKASKILIVDWDVHHGNGTQQTFYQDPSVLYISLHRHDDGNFFPGSGAVDEVGAGSGEGFNVNVAWAGGLDPPMGDPEYLAAFRIVVMPIAREFSPDLVLVSAGFDAAEGHPAPLGGYHVSAKCFGYMTQQLMNLAGGAVVLALEGGHDLTAICDASEACVAALLGNRVDPLSEEGWKQKPNLNAIRSLEAVIRVHSKYWGCMQRLASCPDSWVPRVPGADKEEVEAVTALASLSVGILAEDRPSEQLVEEEEPMNL
B1: the binding entry is “binds”.
